# Laboratory results reported in PubChem BioAssay AID2685 (National Center for Advancing Translational Sciences (NCATS), 2010).
# Out of some 320,000 compounds screened, about 2,100 (0.66%) were called active. The shares of active, inactive and inconclusive entries below differ from those in the screen. Calls come from the whole dose curve; as a rule, active = well fitted inhibition curve with a large enough effect in the signal ratio, with a control signal flat (not every such curve was filed as active); inconclusive = small, poorly fitted or top-dose-only effect, or effect the other way, or a change in a side signal; inactive = flat fitted curve, though single readings scatter; the % refers to the signal ratio. Where the call is inconclusive, the potency comes from a doubtful curve fit.
# Test: qHTS Assay for Lipid Storage Modulators in Drosophila S3 Cells
# Conditions: BODIPY lipid droplet fluorescence, 18-24 h, cells fed with added oleic acid; lipid storage change, negative = inhibition: at 46.1 µM (top of the series) unless noted
# Procedure, shortened: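 Laser-scanning cytometry quantifies lipid droplet accumulation (500–530 nm total intensity; droplet/cell object ratio) in oleic acid-fed (400 uM added) Drosophila S3 cells treated with a concentration series. 20 uM Triacsin C defined 100% inhibition.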
# % is set by controls: 0 for no effect and ±100 for the full control effect; potency is the fitted concentration of half-maximal effect.
Compound,Potency,"lipid storage change, negative = inhibition"
OCCN(Cc1ccccc1)Cc1ccc(F)c(F)c1,"inconclusive: 1.84 µM [falling, full curve, poor fit]",–
CCOC(=O)c1cc(C(=O)NCc2ccc(Cl)cc2Cl)nn1C,–,inconclusive: 0.389%
Cc1nn(-c2ccccc2)c(N)c1N=Nc1cccc(S(=O)(=O)N2CCOCC2)c1,"inconclusive: 23.1 µM [falling, single point]",–
CCOc1ccc(NC(=O)c2ccc(NC(=O)COC(=O)Cc3ccc(OC)cc3)cc2)cc1,–,inconclusive: 20.8%
CS(=O)(=O)c1cccc(C(=O)Nc2cccc(S(=O)(=O)N3CCCC3)c2)c1,–,inconclusive
CCOC(=O)N1CCC(N2Cc3cccc(C(=O)Nc4ccc(N(CC)CC)cc4C)c3C2=O)CC1,–,inconclusive: -24.1%
CC(C)c1nnc(NC(=O)c2c(O)c3cccc4c3n(c2=O)CCC4)s1,–,inconclusive: 0.638%
Cc1csc(SCc2c(C(=O)O)oc3ccccc23)n1,–,inconclusive: -42.6%
OCCNCCCCCOc1ccc(F)cc1,–,inconclusive: 55.8%
CC(=O)Oc1ccc(C23CC4CC(CC(C4)C2)C3)cc1C(=O)O,"inconclusive: 29.1 µM [rising, single point]",–
Cc1cc(=O)oc2cc(NC(=O)c3cccc(S(C)(=O)=O)c3)ccc12,–,inconclusive: 79.6%
O=S(=O)(c1ccccc1)[C@@]1(c2ccccc2)C[C@@H]2ON=C(c3cccc(Br)c3)[C@@H]2C1,–,inconclusive: -100%
Cc1noc(C)c1C(=O)OCC(=O)c1c[nH]c2ccccc12,"inconclusive: 1.64 µM [activator, partial curve]",–
CCOc1cccc(-c2nnc3sc(COc4ccc(Cl)cc4)nn23)c1,–,inconclusive: -23.2%
COC(=O)CC1C(=O)NC(C)=C1C(=O)OC (stereo not drawn),–,inconclusive: -26.4%
O=C(Nc1ccccc1)OCC1CCCN2CCCCC12 (stereo not drawn),–,inconclusive: -90.7%
O=S(=O)(c1cc(F)ccc1F)N1CCN(c2ccccn2)CC1,"inconclusive: 0.13 µM [activator, full curve, poor fit]",–
Cc1nn(-c2ccccc2)c(Cl)c1C(=O)NCc1ccccc1F,"inconclusive: 29.1 µM [activator, single point]",–
COc1ccc(N2CCN(C(=O)COc3cccc4ccccc34)CC2)cc1,"inconclusive: 5.17 µM [activator, partial curve]",–
O=C(CN1CCN(c2ccc(O)cc2)CC1)N(C1CC1)C1CCS(=O)(=O)C1 (stereo not drawn),–,inconclusive: 5.24%
O=C(OCC(=O)N(Cc1ccccc1)C1CCS(=O)(=O)C1)c1cc2c(s1)CCCC2 (stereo not drawn),–,inconclusive: -101%
O=C(NCC(c1ccco1)N1CCc2ccccc2C1)c1c(F)cccc1F (stereo not drawn),–,inconclusive: -2.95%
COc1ccccc1NC(=S)NC(=O)/C=C/c1ccco1,–,inconclusive: 11.8%
COC(=O)c1cc(N=Cc2c(O)c3ccccc3oc2=O)cc(C(=O)OC)c1,"inconclusive: 3.66 µM [falling, full curve, poor fit]",–
CCCCN(CCCC)S(=O)(=O)c1ccc(C(=O)Nc2nnc(CSC)o2)cc1,–,inconclusive: 362%
CCCc1nc(SCC(=O)Nc2ccccc2)c2c(=O)n(C)c(=O)n(C)c2n1,"inconclusive: 0.82 µM [rising, full curve, poor fit]",–

# 3 structures out of the list, ordered by SMILES length, smallest number first.
Compound,Potency,"lipid storage change, negative = inhibition"
OCCNCCCCCOc1ccc(F)cc1,–,inconclusive: 55.8%
Cc1nn(-c2ccccc2)c(Cl)c1C(=O)NCc1ccccc1F,"inconclusive: 29.1 µM [activator, single point]",–
CCCc1nc(SCC(=O)Nc2ccccc2)c2c(=O)n(C)c(=O)n(C)c2n1,"inconclusive: 0.82 µM [rising, full curve, poor fit]",–

# Two entries from above, with tabs.
Compound	Potency	lipid storage change, negative = inhibition
CC(=O)Oc1ccc(C23CC4CC(CC(C4)C2)C3)cc1C(=O)O	inconclusive: 29.1 µM [rising, single point]	–
Cc1cc(=O)oc2cc(NC(=O)c3cccc(S(C)(=O)=O)c3)ccc12	–	inconclusive: 79.6%

# Going on with the list.

Compound,Potency,"lipid storage change, negative = inhibition"
Cc1cc(SCc2ccc(C(F)(F)F)cc2)nc(=O)[nH]1,"inconclusive: 29.1 µM [activator, single point]",–
COc1ccc(OCCNC(=O)c2cc(C3CC3)nc3c2cnn3C(C)C)cc1,"inconclusive: 32.6 µM [falling, single point]",–
NC(=O)C1CCN(Cc2cccc(OCc3ccccc3)c2)CC1,–,inconclusive: 5.51%
CCOC(=O)C1=C(C)NC2=C(C(=O)CC(c3ccc(OC)c(OC)c3)C2)C1c1ccc(C)o1 (stereo not drawn),–,inconclusive: 3.97%
Cc1ccc(N/C(CSC(N)=O)=N\S(=O)(=O)c2ccc(C)cc2)cc1,"inconclusive: 0.116 µM [falling, full curve]",–
COc1cc2c(cc1NC(=O)C(C)Sc1ccc(NC(C)=O)cc1)oc1ccccc12 (stereo not drawn),–,inconclusive: 12.2%
CCN(C(=O)CN1C(=O)NC2(CCc3ccccc32)C1=O)C1CCS(=O)(=O)C1 (stereo not drawn),–,inconclusive: -21.5%
Cc1ccc(C)c(S(=O)(=O)NCC(=O)Nc2ccc3c(c2)OCO3)c1,"inconclusive: 4.11 µM [activator, full curve, poor fit]",–
COCCNC(=O)Cn1nc(C(F)(F)F)c(Cl)c1C,–,inactive
COc1ccc(CCN(C)C(=O)COC(=O)/C=C/c2ccc(C)o2)cc1OC,–,inconclusive
O=C(NC1CCCC1)C(c1cccnc1)N(C(=O)c1ccco1)c1cccc(F)c1 (stereo not drawn),–,inconclusive: 52.8%
NC(=O)c1nsc(C(=O)N(CC(=O)NCc2ccccc2)c2ccc(F)cc2)c1N,–,inconclusive: -11.1%
COc1ccc(/C=N/NC(=O)CCCOc2ccc(Cl)cc2Cl)cc1,–,inconclusive: -49%
CCn1c(SCC(=O)N2CCCC2)nc2ccccc21,–,inconclusive: 20.9%
Cc1onc(-c2c(F)cccc2Cl)c1C(=O)NNC(=O)C1CCN(Cc2cccc(F)c2)CC1,"inconclusive: 6.51 µM [falling, single point]",–
CS(=O)(=O)N1CCC(C(=O)N2CCN(c3ccccc3F)CC2)CC1,–,inactive
COc1cccc(N2C(=O)C3CCCN3C2c2cccs2)c1 (stereo not drawn),–,inactive
CC(=O)C1=C(C)Nc2ncnn2C1c1ccc(F)cc1 (stereo not drawn),–,inconclusive: 26%
Cc1ccc(NC(=O)N2CCCCCC2)cc1C,–,inconclusive: 40.4%
COc1ccc(OC)c(Nc2cc(C)c3ccccc3n2)c1,"inconclusive: 29.1 µM [falling, single point]",–
COc1ccc2[nH]c(C(=O)N(Cc3ccccn3)Cc3ccccn3)cc2c1,–,inconclusive: 11.2%
Cc1csc2ncc(C(=O)Nc3ccc4c(c3)OCCO4)c(=O)n12,–,inconclusive: 14.6%
Cc1cc(=O)[nH]c(N/N=C/c2c(C)nn(-c3ccccc3Cl)c2Cl)n1,–,inconclusive: -62.2%
CCC(C)(C)n1nnnc1C(C(C)C)N(CCCO)Cc1cc2cc(C)ccc2[nH]c1=O (stereo not drawn),"inconclusive: 2.06 µM [activator, partial curve, poor fit]",–
Cc1ccccc1Cn1ccc(NC(=O)CCSc2nc(-c3ccco3)cc(C(F)(F)F)n2)n1,"inconclusive: 25.9 µM [falling, partial curve, poor fit]",–
CCCN1CN(Cc2ccco2)c2nc3ccccc3n2C1,–,inconclusive: 10.5%

Compound,Potency,"lipid storage change, negative = inhibition"
CCCNc1nc2ccccc2c(=O)[nH]1,–,inactive
CCN(CC)S(=O)(=O)c1ccc(F)c(C(=O)NCCCN2CCOCC2)c1,–,inconclusive: 12.2%
COc1ccc([N+](=O)[O-])cc1N(CC(O)CN1C(=O)NC(C)(C)C1=O)S(=O)(=O)c1ccccc1 (stereo not drawn),"inconclusive: 29.1 µM [falling, single point]",–
COc1ccc(C(C)=O)cc1CSc1nnc(SCc2cc(C(C)=O)ccc2OC)s1,–,inactive
O=C(O)c1cccc(S(=O)(=O)NCc2cccs2)c1,–,inconclusive: -6%
O=C(CSc1nc2ccccc2nc1N1CCCCC1)Nc1ccc(F)cc1,–,inconclusive: -37.4%
COc1ccccc1C(=O)NC(=O)COC(=O)c1cccc(OC(F)F)c1,–,inconclusive: 30%
O=C(COC(=O)C1CCN(S(=O)(=O)c2cccs2)CC1)NCc1ccccc1,–,inconclusive: -5.7%
CCN(CC)S(=O)(=O)c1cccc(C(=O)Nc2cccc(C)c2)c1,"inconclusive: 29.1 µM [rising, single point]",–
O=c1c2c([nH]c3ccccc13)CCCC2,"inconclusive: 4.61 µM [falling, partial curve, poor fit]",–
Cc1ccccc1Nc1cc(C(=O)NCc2ccco2)c2ccccc2n1,–,inconclusive: 28%
O=S(=O)(NCCC(c1ccc(F)cc1)c1ccco1)c1ccccc1 (stereo not drawn),–,inconclusive: -20.6%
CCN(CC)S(=O)(=O)c1ccc(NC(=O)CSc2nnc(-c3ccc(F)cc3)o2)cc1,–,inconclusive: 41.7%
CC(=O)c1ccc(NC(=S)Nc2cccc3cnccc23)cc1,–,inconclusive: 4.8%
O=S1(=O)CC2SC(=S)N(c3ccccc3)C2C1 (stereo not drawn),–,inconclusive: -60.3%
COc1ccc(OC)c(S(=O)(=O)N2C(C)CCCC2C)c1 (stereo not drawn),"inconclusive: 0.0046 µM [falling, full curve, poor fit]",–
CCc1ccc2c(CN3CCN(S(=O)(=O)c4ccc5c(c4)OCCO5)CC3)cc(=O)oc2c1,–,inconclusive: 25.6%
C=CCNc1nc(C)c(CNc2c(C)cc(C)cc2C)nc1C#N,–,inconclusive: 60.4%
COc1ccc(CN2CCCC(C(=O)N3CCCCC3)C2)cc1OC (stereo not drawn),–,inconclusive: 4.61%
CCOC(=O)c1ccc(-c2c(-c3ccc(OC)cc3)oc(=O)c3cc(OC)c(OC)cc23)cc1F,–,inconclusive: 11.6%
CCN(CC)C(=O)c1ccc(Nc2nnc(-c3ccc(O)cc3)c3ccccc23)cc1,–,inconclusive: -34.2%
CCC(CC)C(=O)N1CC(=O)Nc2ccc(F)cc2C1c1ccc(F)cc1 (stereo not drawn),–,inconclusive: -6.7%
CCC(C)Nc1nc2c(C)cccn2c(=O)c1C=Nc1ccc(OC)cc1 (stereo not drawn),–,inactive
O=C(Nc1cc(Cl)ccc1F)c1ccc(-n2cncn2)c([N+](=O)[O-])c1,–,inconclusive: 38.2%
C=CCNc1nc2c(c(=O)n(C)c(=O)n2C)n1Cc1ccc(F)cc1,"inconclusive: 29.1 µM [cytotoxic, single point]",–
Cc1cc(Cl)c2oc(C(=O)NC3CCC(O)CC3)c(C)c2c1 (stereo not drawn),–,inconclusive: -59.9%
